Results from paper PMC4890496.

Test system: NtARF8-His (Nicotiana tabacum (cv. NC89))
Test: EMSA
Settings: not stated (EMSA by previously described methods, ref 47); recombinant protein; label: biotin

Sequence | binding result
CATTATTTACGTGTCTGTTTTCCTG (double strand) [WT probe (TGTCT auxin response element)] | binds
CATTATTTACGTAGATGTTTTCCTG (double strand) [mutant probe] | no binding

The exact form of at least one protein or probe is not confirmed. A negative result means that nothing was seen under these conditions.
